Source: PubChem BioAssay AID504744 (Drosophila RNAi Screening Center, 2011)
The deposit covers about 23,000 reagents; below is an unselected part of those that have a named target and a result. Over the whole deposit, 98 (0.43%) got an active call. 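Only hit calls are given; the phospho-dAkt signals, z-scores and hit direction were not deposited.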 A plus sign joins genes that one reagent is predicted to hit. No sequences are given here.

Aim: 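Identify dsRNAs that increase or decrease phospho-dAkt after insulin treatment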 (primary screen)
Cell system: Drosophila Kc167 cells
Reagent: long dsRNA against Drosophila genes, 250 ng dsRNA per well of a 384-well plate
Time to read-out: 3 days of knock-down, then overnight serum-free starvation before stimulation
Challenge: bovine insulin at 387 nM for 10 minutes after 12 h without serum
Measurement: 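In-cell antibody fluorescence for phospho-dAkt in each well over DNA-dye signal, with log2 residuals expressed as z-scores adjusted for cell count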
Rule for the call: 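Under insulin, a gene counts as a hit if the average z-score of two replicates lies above 2.5 or below -2.5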

gene | amplicon | Outcome
CG13247 | DRSC11695 | inactive
CG9114 | DRSC20155 | inactive
CG17350 | DRSC02611 | inactive
Cht8 | DRSC04546 | inactive
plu | DRSC07665 | inactive
CG14400 | DRSC02384 | inactive
cg | DRSC07650 | inactive
sl | DRSC20377 | inactive
sl | DRSC21782 | inactive
CG8850 | DRSC07287 | inactive
CG15535 | DRSC15071 | inactive
ase | DRSC18739 | inactive
trpl | DRSC06728 | inactive
trpl | DRSC06729 | inactive
Rac2 | DRSC11262 | inactive
MFS18 | DRSC00452 | inactive
CG34284 | DRSC14773 | inactive
pr | DRSC03596 | inactive
MAGE | DRSC12504 | inactive
CG2200 | DRSC19840 | inactive
RfC4 | DRSC08691 | inactive
CG7634 | DRSC11843 | inactive
Muc55B | DRSC21440 | inactive
Crtp | DRSC04604 | inactive
P5cr | DRSC16782 | inactive
Pbp95 | DRSC15448 | inactive
Gbeta13F | DRSC20247 | inactive
CG14933 + CG42486 | DRSC02415 | inactive
CG9109 | DRSC03139 | inactive
CG15890 | DRSC19737 | inactive
Prosbeta2R2 | DRSC12193 | inactive
RpS30 | DRSC15119 | inactive
CG9920 | DRSC16578 | inactive
CG13510 | DRSC04152 | inactive
Odj | DRSC16234 | inactive
pea | DRSC07120 | inactive
18w | DRSC05029 | inactive
CG32087 | DRSC10806 | inactive
Hsp70Aa + Hsp70Bb + Hsp70Ba + 3 more | DRSC15380 | inactive
CG11368 | DRSC17778 | inactive
CR18217 | DRSC21506 | inactive
NANS | DRSC15743 | inactive
CG7408 | DRSC10841 | inactive
Ir8a | DRSC17817 | inactive
Ir8a | DRSC17869 | inactive
by | DRSC16482 | inactive
mRpL40 | DRSC15749 | inactive
CG16736 | DRSC15145 | inactive
Rab3 | DRSC07523 | inactive
CG30158 | DRSC04956 | inactive
CG30158 | DRSC04974 | inactive
CG30158 | DRSC04975 | inactive
CG30158 | DRSC05012 | inactive
Pi3K21B | DRSC00771 | active
melt | DRSC11367 | inactive
Zip89B | DRSC16128 | inactive
CG16713 | DRSC00477 | inactive
rec | DRSC14998 | inactive
rec | DRSC15656 | inactive
sra | DRSC17015 | inactive
MsR1 | DRSC08615 | inactive
CG16719 | DRSC10222 | inactive
CG9849 | DRSC04573 | inactive
plh | DRSC12294 | inactive
Psi | DRSC07519 | inactive
Rab32 | DRSC05146 | inactive
Rab32 | DRSC07522 | inactive
Pi3K68D | DRSC11253 | inactive
idc | DRSC15680 | inactive
ppan | DRSC17030 | inactive
Hcs | DRSC12070 | inactive
Hcs | DRSC12256 | inactive
cyp33 | DRSC07600 | inactive
Idh | DRSC10779 | inactive
jef | DRSC06198 | inactive
CG13962 | DRSC02304 | inactive
RpLP0 | DRSC11878 | inactive
RpLP0 | DRSC22110 | inactive
Ank2 | DRSC08894 | inactive
Ank2 | DRSC09666 | inactive
Ank2 | DRSC10338 | inactive
Ank2 | DRSC11278 | inactive
Ank2 | DRSC22922 | inactive
CG31245 | DRSC15498 | inactive
bumpel | DRSC16100 | inactive
CG30281 | DRSC04528 | inactive
CG6665 | DRSC07006 | inactive
CG11808 | DRSC06088 | inactive
CG32299 + CG32298 | DRSC07980 | inactive
CG32299 + CG32298 | DRSC22354 | inactive
CG18132 | DRSC00518 | inactive
CG11961 | DRSC06099 | inactive
CG33159 | DRSC08199 | inactive
Mst36Fa | DRSC21564 | inactive
Oscillin | DRSC03001 | inactive
CG5928 | DRSC18391 | inactive
Mlp84B | DRSC12596 | inactive
CG13058 | DRSC09941 | inactive
ENGase | DRSC19952 | inactive
ENGase | DRSC19953 | inactive
SCCRO | DRSC10844 | inactive
MFS10 | DRSC19888 | inactive
CBP | DRSC17746 | inactive
Mcr | DRSC03366 | inactive
Alp5 | DRSC14269 | inactive
CHKov1 | DRSC01566 | inactive
CHKov1 | DRSC01696 | inactive
CHKov1 | DRSC14258 | inactive
CHKov1 | DRSC20937 | inactive

Reagents listed so far with an active call:
gene | amplicon | Outcome
Pi3K21B | DRSC00771 | active
